Our source for the yeast fitness values is the RNAGym collection of RNA variant scans (doi:10.1126/science.aae0568).

Variants at the floor of the assay are shown more often than the library holds them. Bounds are passed on as bounds.

B1: tRNA (parent)
chain: GUUCCGUUGGCGUAAUGGUAACGCGUCUCCCUCCUAAGGAGAAGACUGCGGGUUCGAGUCCCGUACGGAACG

In the data set the parent is B1. The experiment in a line: yeast fitness relative to wild type (ratio to wild type); higher = fitter; tRNA-Arg(CCU), competitive growth, 37 C, YPD. The essentials: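 Start and end populations of a pooled competition were compared by 100-nucleotide paired-end sequencing of gene amplicons. The Saccharomyces cerevisiae strains carried tRNA-Arg(CCU) gene variants at the native genomic locus, synthesised with a 3% per-site mutation rate at 69 sites, and competed in YPD at 37°C for 24 hours in six parallel replicates. Darwinian fitness relative to wild type was based on the change in genotype frequencies. Genotypes required ≥ 100 starting reads, and estimates < 0.5 were set to 0.5.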
Take A14C A20U G25C A57G: the yeast fitness is at most 0.5.
As for U28G C30U A36C, the yeast fitness was at most 0.5.
Take U2A A21G G39A A65G: the yeast fitness is at most 0.5.
Take C4G A14C A20G G68A: the yeast fitness is at most 0.5.
Turning to C24G A42G A43U U47A, the yeast fitness amounted to 0.635.
Take U2A C24U C31G G44A: the yeast fitness was at most 0.5.
As for C5A U28C A37C G56A U59C, the yeast fitness was at most 0.5.
Turning to U16G C31U A42U A69U, the yeast fitness is at most 0.5.
For the variant U59C C61U, the yeast fitness is 0.839.
For G6A A40G G68A, the yeast fitness was at most 0.5.
For C27U C30G A40C G52A, the yeast fitness was at most 0.5.
In the case of U3C G9A A15U C30A A42G, the yeast fitness came to 0.506.
For C11A U35C G50C, the yeast fitness is at most 0.5.
Regarding C4U A14U, the yeast fitness worked out at 0.611.
In the case of C27G G48A U59G, the yeast fitness is at most 0.5.
In the case of A15G C30A C31U A45C C55G, the yeast fitness was at most 0.5.
As for C30U G48C A65G, the yeast fitness was 0.606.
The same measure for C22U C60U C61A: at most 0.5.
Regarding C33U G58A C61G A70U, the yeast fitness was at most 0.5.
With A21G C22U A37U A45G C46G C55A U64G, the yeast fitness is at most 0.5.
With C11A C29G U32C, the yeast fitness is at most 0.5.
The same measure for C11U G18C G52C: at most 0.5; for C11A A15C C24G C34A A65C: at most 0.5; for U32G G39C G52C A65C: at most 0.5.
Turning to C30A A36U C49U, the yeast fitness is at most 0.5.
Consider U7G C11G C34U C46U U54G A70U, for which the yeast fitness is at most 0.5.
Take C5G U28C: the yeast fitness turned out to be 0.737.
On to C4U C31U C55A, for which the yeast fitness is at most 0.5.
For U7G U32G A37U G50C, the yeast fitness was at most 0.5.
For the variant G12A U32C A37U U54A, the yeast fitness was at most 0.5.
For the variant U19G G48A C66A, the yeast fitness was at most 0.5.
Turning to G50C U59G C62U G68A, the yeast fitness is at most 0.5.
Take G9C C24U C30G G51A A70G: the yeast fitness is at most 0.5.
For the variant U26C A42U, the yeast fitness was 1.01.
U3A A36C G51C A69U: the yeast fitness is at most 0.5.
As to G25A C29U A42C G48C, the yeast fitness is at most 0.5.
For U13A U54C C66U G68C A69U, the yeast fitness was at most 0.5.
Regarding G6A U26C G50C, the yeast fitness was at most 0.5.
Turning to A42U C46G G50A G67C, the yeast fitness is at most 0.5.
Consider U2C G17A U19G A69C, for which the yeast fitness is at most 0.5.
For U13A G25A G48C G52C C55U, the yeast fitness is at most 0.5.
G6A A14U G52A G63C: the yeast fitness is at most 0.5.
Take A14G G18C G50C C66U: the yeast fitness was at most 0.5.
The same measure for U3C U16A A20U C24G C33G C61A G67C: at most 0.5; for A15G C24G C49U G63A G68A: at most 0.5; for A20U C29U C49G: at most 0.5.
Turning to U3C G18C C31G, the yeast fitness is at most 0.5.
Turning to A20G C34U, the yeast fitness came out at 0.777.
Regarding C11G U16A G23C C61G, the yeast fitness is at most 0.5.
Turning to U13A C27A A36C A42U U64G, the yeast fitness is at most 0.5.
Consider U7G U28C U53A, for which the yeast fitness was at most 0.5.
With G12A U47A G68A, the yeast fitness is at most 0.5.
With G9C A40C C55G, the yeast fitness was at most 0.5.
On to G18A C34U U35C C61U A69G A70C, for which the yeast fitness was at most 0.5.
Turning to G17C C24G G63C, the yeast fitness is at most 0.5.
The same measure for U7A A37G G48A C66U: at most 0.5; for G38A A40U C55A A57C C66U: at most 0.5.
With G17A U47C C66U A69U, the yeast fitness was at most 0.5.
Consider U2A C5U G39C G67U, for which the yeast fitness is at most 0.5.
For the variant U13G C46G, the yeast fitness was 1.12.
In the case of U47C U53C, the yeast fitness was 0.795.
For C5U U28A C34U G41A, the yeast fitness was at most 0.5.
Take G17A U19C A20G C49G C61A: the yeast fitness is at most 0.5.
As to C33G C55A G58A, the yeast fitness worked out at 0.609.
For the variant C5U U13G C24G C33A C62G C66U, the yeast fitness was at most 0.5.
With G25C C29G G52A, the yeast fitness is at most 0.5.
The same measure for C4U C11G C34U: 0.551.
Regarding C27A G38C, the yeast fitness worked out at 0.609.
Take C29U A36U G38A C60A: the yeast fitness was at most 0.5.
For the variant G6A C11A C49U A65G, the yeast fitness was at most 0.5.
On to G38U A69C, for which the yeast fitness was 0.892.
C5A C22G C27G A36U A40C A57U C66U: the yeast fitness was at most 0.5.
The same measure for U3C C27G C33A U47G A70G: at most 0.5; for U2A U3A G51A: at most 0.5; for C5U C11U G51C G52A G56C: at most 0.5.
With G9A A15U C33G G39A G67C, the yeast fitness is at most 0.5.
In the case of C33G A40G A42C, the yeast fitness is at most 0.5.
The same measure for G6A G12C G17C G51A: at most 0.5; for C4U A15C A70U: 0.573.
G12A A45G: the yeast fitness amounted to 0.953.
Turning to U16C C29G C60G, the yeast fitness was at most 0.5.
Regarding G9C G52U, the yeast fitness came out at 0.502.
On to U13G C27U G39C C49U, for which the yeast fitness was at most 0.5.
Regarding U26C C31A G41A, the yeast fitness was at most 0.5.
For the variant G44A C55A U59A, the yeast fitness is at most 0.5.
For G38A G44C U47G, the yeast fitness was at most 0.5.
Take U3C G10C A14C: the yeast fitness is at most 0.5.
U3C C4U A40G A43U C55G: the yeast fitness was at most 0.5.
As for U2A C66A A69C, the yeast fitness is at most 0.5.
Regarding U13G C33U G41C C66A, the yeast fitness was at most 0.5.
On to A20U C29U U53A, for which the yeast fitness was at most 0.5.
The same measure for C5U C33A G41C G68C: at most 0.5; for C4G C11U U35C A36G G63A: at most 0.5; for U2A A57G: 0.897.
For U13A C34A A37C G58A, the yeast fitness is at most 0.5.
The same measure for C5A G17A A36G: at most 0.5.
As to C11G C49A G63C G68U, the yeast fitness is at most 0.5.
As for G52A A57C A69U, the yeast fitness stood at 0.565.
Turning to C4U A14U A36U G56A, the yeast fitness is at most 0.5.
Take U64A G68U: the yeast fitness stood at 0.728.
For the variant U3C G10A C49A C60G, the yeast fitness was at most 0.5.
The same measure for C5G U32A G56A: 0.634; for C4G A15G G17A C34A: at most 0.5; for C30G A36G A57U: at most 0.5.
C5G U7A G12A A20C C60U A69U: the yeast fitness is at most 0.5.
In the case of C34G G50C U53A A69C, the yeast fitness was at most 0.5.
For G10C C11G G56C G68A, the yeast fitness is at most 0.5.
As to U13A C29U C30G A45C C60A C62A, the yeast fitness is at most 0.5.
To U7G G12A U13A belongs 0.565.
With G9A C22A U28A C62U C66A, the yeast fitness is at most 0.5.
In the case of C4U U7A U47C C66U, the yeast fitness was at most 0.5.
To A15U U32A C62U G63C belongs at most 0.5.
Consider G10A U19A A45G C61G, for which the yeast fitness was at most 0.5.
Consider G12C C33U C46G U54A, for which the yeast fitness is at most 0.5.
The same measure for A20U C24U G51C U54A: at most 0.5; for U16G C27A C46A: at most 0.5.
C4U G12C U54G: the yeast fitness was at most 0.5.
For the variant C11U A37U U53G, the yeast fitness was at most 0.5.
Consider A15C C27G G67C, for which the yeast fitness is at most 0.5.
The same measure for A15G G44A G50C A69C: at most 0.5.
Take A15U C55G A70C: the yeast fitness is at most 0.5.
Consider C4G C11U U19A U32A A37U U64A, for which the yeast fitness was at most 0.5.
The same measure for U13C C30G C46G G52C G68C: at most 0.5; for G9A C11A A36C A45U: at most 0.5.
C11G C27A C34U A42U C66G: the yeast fitness is at most 0.5.
U3G C22G U32G A43G: the yeast fitness is at most 0.5.
For C11U U19C C31A G50U C62G, the yeast fitness is at most 0.5.
G6A G38A C61A: the yeast fitness is at most 0.5.
For the variant A15C C31U C66A A69U, the yeast fitness was at most 0.5.
For C11G C27U A36U A37U G41C A43U C49G C62G, the yeast fitness was at most 0.5.
As for C4A A15C U26G A65G, the yeast fitness is at most 0.5.
For the variant A14G G17A A37U C60A, the yeast fitness is at most 0.5.
Take C5G U13C A43G C46U G50C: the yeast fitness was at most 0.5.
As for U28G U32A G38C A65C G67C, the yeast fitness is at most 0.5.
Consider A15U C27U A36G, for which the yeast fitness was at most 0.5.
For the variant C5U U13A C29G C31A C61G A69C, the yeast fitness is at most 0.5.
As for U7G U13A G25C A65G, the yeast fitness was at most 0.5.
Turning to C4U C5A A36U G39C C60A G68A, the yeast fitness was at most 0.5.
Turning to A15C C61U A69U, the yeast fitness amounted to 0.571.
To C4U C11G G56C belongs at most 0.5.
The same measure for A14U A15C C31G A43U: 0.627; for C4U A14G A15C A37G C61U: at most 0.5.
For U2C U7G A15G A45U G50A A57C A69U, the yeast fitness was at most 0.5.
Consider U26C G58C G63C, for which the yeast fitness was at most 0.5.
In the case of U3A G17A C22U A43G G68C, the yeast fitness is at most 0.5.
For U2G G9C A14C C27U U47C G58A, the yeast fitness was at most 0.5.
With A20G C24G U32C G51A, the yeast fitness was at most 0.5.
Regarding U2G C22U C24G C49U A69C, the yeast fitness was at most 0.5.
In the case of C11A A42C G58A, the yeast fitness came to 0.742.
Regarding U8A G51C G58A, the yeast fitness was at most 0.5.
G18A C30U A40G G68C: the yeast fitness was at most 0.5.
Take U2A G23C C27U C31G A42C C61U: the yeast fitness is at most 0.5.
Regarding C4G U19C C62U G63A, the yeast fitness worked out at 0.545.
C30U G41A U47A A69C: the yeast fitness was at most 0.5.
Turning to C5A C22A C66U, the yeast fitness was at most 0.5.
For the variant G41C C66A, the yeast fitness amounted to 0.621.
As for U2G C11U G23A, the yeast fitness was at most 0.5.
As for C24U U59A A65U, the yeast fitness was at most 0.5.
For the variant G12C U13C A20C C24G C30U C46U G52C, the yeast fitness was at most 0.5.
Consider U64G C66A, for which the yeast fitness is at most 0.5.
Consider U3A C27U G67U, for which the yeast fitness was 0.606.
The same measure for C27A C29U A40G C61G: at most 0.5; for U7C G10C A20G A43C: at most 0.5; for U16C G17A C49U A70G: at most 0.5.
To C5U C31A C34U C61G belongs at most 0.5; to A15U C34G A37G A40C U59C, at most 0.5; to U26A G39C G51C, at most 0.5.
